# Test results from PubChem BioAssay AID2685 (National Center for Advancing Translational Sciences (NCATS), 2010).
# Values joined by “and” are separate entries in the source; they are usually repeats but may differ in a detail not shown here. Identical values can stand only once. This is one part of the list. Shown are side measurements of this screen, not its main read-out; they come without a call. Compounds called inactive in the main read-out are mostly missing here. Words in brackets tell the shape of the fitted curve; partial curves, single points and poor fits give uncertain potencies. Where a SMILES comes first, the peptide text is derived from it. The star is where a group is joined. Cbz = O=C(OCc1ccccc1)*
# Test: qHTS Assay for Lipid Storage Modulators in Drosophila S3 Cells;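 on cell number change: cells counted by Cell Tracker Red CMTPX staining in the red channel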
# Settings: BODIPY lipid droplet fluorescence, 18-24 h; for cell number change: measured here: cell count max response, cells fed with added oleic acid
# In short: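 Laser-scanning cytometry quantifies lipid droplet accumulation (500–530 nm total intensity; droplet/cell object ratio) in oleic acid-fed (400 uM added) Drosophila S3 cells treated with a concentration series. 20 uM Triacsin C defined 100% inhibition.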
# [1] = measured here: lipid fluorescence (Fed channel) AC50, cells fed with added oleic acid
# [2] = measured here: cell number channel AC50, cells fed with added oleic acid
SMILES,cell number change,AC50 [1],AC50 [2]
CN(C)C(=O)COC(=O)c1ccccc1Nc1ccc(SC(F)F)cc1,-29%,,
O=S(=O)(c1ccc(Br)s1)N1CCN(CCOc2ccccc2)CC1,5.76%,"0.00517 µM [rising, full curve]",
CNC(=O)/C(C#N)=C/c1c(N(Cc2ccccc2)Cc2ccccc2)nc2c(C)cccn2c1=O,-18.6%,"29.1 µM [falling, single point]",
CCCn1c(/N=C/c2ccc3c(c2)OCO3)nc2ccccc21,-4.45%,,
COCC(=O)N(C)C1(c2nnnn2CCOC(=O)Nc2ccc(Cl)cc2)CCCCC1,51.7%,,
COc1cccc(CCC(=O)N(C)C2CCCN(Cc3ccccc3F)C2)c1 (stereo unspecified),-14.3%,"4.11 µM [falling, single point]",
CC(NC(=O)c1cc(S(=O)(=O)N(C)C)ccc1N1CCCC1)C1CC2CCC1C2 (stereo unspecified),15.7%,,
CCOC(=O)c1cnc2c(C#N)cnn2c1N,-10.3%,"6.51 µM [rising, single point]",
O=C1C2ON(c3ccccc3)C(c3ccncc3)C2C(=O)N1c1ccc(N2CCOCC2)cc1 (stereo unspecified),-32.8%,"29.1 µM [falling, single point]","9.2 µM [falling, partial curve, poor fit]"
Cc1cc(C)nc(SCc2ccc(C(=O)N/N=C/c3cccnc3)cc2)n1,-8.2%,"6.51 µM [rising, partial curve, poor fit]","0.058 µM [rising, full curve, poor fit]"
CN(C)S(=O)(=O)c1ccc(C(=O)Nc2nnc(-c3ccco3)o2)cc1,3.82%,"6.51 µM [falling, single point]",
CCc1cc(Cn2nc(C(=O)O)cc2-c2ccccc2)on1,-15.3%,"6.51 µM [rising, single point]",
COc1cc(NC(=S)N2CCN(C(c3ccccc3)c3ccccc3)CC2)cc(OC)c1,,,"0.092 µM [rising, full curve, poor fit]"
C/C(=N\Nc1ccccn1)c1ccc(S(=O)(=O)NCc2ccco2)cc1,-5.05%,"0.731 µM [falling, partial curve, poor fit]",
O=C1Cc2ccccc2C(=O)N1c1ccc(F)cc1Cl,29.3%,"29.1 µM [falling, single point]",
COc1cccc(OC)c1C(=O)Nc1c(C)n(C)n(-c2ccccc2)c1=O,-60.7%,,"29.1 µM [falling, single point]"
CC(C)(C)c1ccc(S(=O)(=O)N2CCC(N3CCCCC3)CC2)cc1,26.1%,"29.1 µM [rising, single point]",
O=C1OC(=O)C2C1[C@@H]1CC[C@H]2O1 (stereo partly specified),-0.902%,"0.517 µM [falling, full curve, poor fit]",
CCN(CC)C(=O)CSc1nc2cc(OC)c(OC)cc2c(=O)n1Cc1ccc(Cl)cc1,2.7%,"2.06 µM [falling, partial curve]",
CCOC(=O)c1cnc(SCC)[nH]c1=O,1.29% and -24.5%,"6.51 µM [falling, single point] and 4.11 µM [falling, partial curve, poor fit]","1.16 µM [falling, full curve, poor fit]"

SMILES,cell number change,AC50 [1],AC50 [2]
CC(C)c1nc2sc3c(SCC(=O)NCc4ccco4)ncnc3c2c2c1CCC2,32.2%,"4.11 µM [rising, single point]","6.51 µM [rising, full curve, poor fit]"
Cc1cc(Cl)c2ccccc2n1,61.3%,"1.84 µM [rising, partial curve, poor fit]","3.66 µM [falling, partial curve]"
NNC(=O)c1oc2ccccc2c1-n1cccc1,3.19%,,
O=C1C=C(Nc2ccc(F)cc2)c2ccccc2C1=O,-10.5%,"29.1 µM [falling, partial curve, poor fit]",
C=CCn1c(C)nnc1SCC(=O)Nc1nccs1,-11%,,
N#CC(C#N)=Cc1cccn1-c1ccc(S(N)(=O)=O)cc1,60.4%,"23.1 µM [rising, partial curve, poor fit]","6.51 µM [rising, partial curve]"
CC(NC(=O)c1ccccc1)C(=O)NC1CCCc2ccccc21 (stereo unspecified),6.5%,,
CCOc1ccc(S(=O)(=O)N2CCN(C(=O)c3oc4ccc(OC)cc4c3C)CC2)cc1,-31.9%,,"32.6 µM [falling, single point]"
CCc1ccc(-c2nc(CS(=O)CC(=O)NCc3ccc4c(c3)OCO4)c(C)o2)cc1 (stereo unspecified),0.57%,"10.3 µM [rising, partial curve]",
CCc1ccc(N(C)S(=O)(=O)c2ccc3[nH]cc(C(=O)NCCN4CCOCC4)c(=O)c3c2)cc1,-58.1%,"2.91 µM [falling, partial curve]","32.6 µM [falling, single point]"
COc1ccc(CC(=O)Nc2nc3ccc(F)cc3s2)cc1S(=O)(=O)N1CCOCC1,,"6.51 µM [rising, single point]","6.51 µM [rising, single point]"
CCOC(=O)Cn1c(=NC(=O)c2ccc([N+](=O)[O-])s2)sc2ccccc21,1.99%,,
COc1ccccc1-c1nnc(SCC(=O)Nc2ccccc2)o1,64.2%,"4.11 µM [rising, full curve]","4.61 µM [rising, full curve]"
COC(=O)CN1C(=O)N/C(=C/c2ccc(OC)c(C)c2OC)C1=O,-8.61%,,
COc1ccc(-n2c(SCC(=O)Nc3ccc(NC(C)=O)cc3)nc3ccccc3c2=O)cc1,-3.89%,"0.146 µM [rising, full curve, poor fit]",
CC(=O)N(Cc1ccccc1)Cc1nc2sc(C)c(C)c2c(=O)[nH]1,12%,"1.03 µM [falling, partial curve]",
O=C(c1ccco1)N1CCN(CC(=O)N(C2CCCCC2)C2CCS(=O)(=O)C2)CC1 (stereo unspecified),-16%,"29.1 µM [falling, single point]",
NS(=O)(=O)c1ccc(NC(=O)/C=C/c2ccc3c(c2)OCO3)cc1,15.7%,,"6.51 µM [rising, single point]"
Cc1ccc(S(=O)(=O)N2CCN(C(=S)NCCc3ccccc3)CC2)cc1,52.5%,,"6.51 µM [rising, partial curve]"
COc1ccc(OCc2nnc(SCC(=O)Nc3cccc(Cl)c3)o2)cc1,25.6%,,

SMILES,cell number change,AC50 [1],AC50 [2]
CC1CN(S(=O)(=O)c2cccc(C(=O)OC(C)C(=O)NC3CCCCC3C)c2)CC(C)O1 (stereo unspecified),25.4%,"3.26 µM [rising, partial curve]",
Cc1ccc(/C=N/Nc2ncc(Cl)cc2Cl)s1,16.7%,"6.51 µM [rising, single point]",
Cc1ccc(S(=O)(=O)N2CCOCC2)cc1C(=O)OC(C)C(=O)c1ccccc1 (stereo unspecified),98%,,"11.6 µM [rising, partial curve]"
COc1cc(C2N=C(c3ccccc3)NO2)cc(Br)c1O (stereo unspecified),,"0.58 µM [falling, single point]",
COC(=O)/C(=C\C=C\c1ccccc1)NC(=O)c1ccccc1,-10.1%,,
O=C(O)CSc1nnc(COc2ccc([N+](=O)[O-])cc2)n1-c1ccccc1,-51%,"23.1 µM [falling, partial curve, poor fit]","1.3 µM [falling, full curve]"
CCCCn1nnnc1NCc1cccs1,-46.6%,,"1.16 µM [falling, partial curve, poor fit]"
C=CCn1c(SCC(=O)Nc2ccccc2OC)nc2c([nH]c3ccccc32)c1=O,22.3%,,"0.0103 µM [rising, full curve, poor fit]"
O=C(O)c1ccc2c(c1)C(=O)N(c1ccc(Nc3ccccc3)cc1)C2=O,14.2%,"1.16 µM [rising, full curve, poor fit]",
CC(=O)Nc1ccc(/C=C2\Sc3ccccc3C2=O)cc1,22.2%,"18.4 µM [rising, partial curve, poor fit]",
COC(=O)c1oc2ccccc2c1NC(=O)c1ccccc1O,-25.5%,"0.651 µM [falling, full curve, poor fit]",
Cc1ccc(C2CC(=O)c3cnc(N4CCc5ccccc5C4)nc3C2)cc1 (stereo unspecified),1.55%,"0.058 µM [falling, full curve, poor fit]",
CCOC(=O)c1cnn(-c2cc(C)nc3c(-c4ccccc4)cnn23)c1N,11.8%,,
Cc1ccc2nsnc2c1N,-28%,,"0.00651 µM [falling, full curve, poor fit]"
Cc1ccc(/C=C/C(=O)OCC(=O)NC(C)C)o1,-26%,"1.3 µM [falling, full curve, poor fit]",
O=C(Nc1ccc(N2CCOCC2)cc1)c1ccc(Br)o1,-25.6%,,
CC(C)C(NC(=O)C(Cc1ccccc1)NC(=O)OCc1ccccc1)C(=O)O (stereo not drawn) (Cbz-Phe-Val-OH; configuration not given here),17.6%,"13 µM [rising, single point]",
COC(=O)c1ccc(COc2ccc(C(C)(C)C)cc2)o1,45.4%,"14.6 µM [rising, partial curve]","13 µM [rising, partial curve, poor fit]"
CCCCSc1nc2sc3c(c2c(=O)[nH]1)CCC3,,"0.411 µM [falling, partial curve]","1.64 µM [falling, partial curve]"
CN(C)c1ccc(/C=N/NC(=O)c2ccc3c(c2)OCO3)cc1,70.3%,"29.1 µM [rising, single point]","29.1 µM [rising, single point]"
